Source: US20200131584A1
These are yes or no findings as the source states them, for the method shown. For some of these results: In cells and extracts the contact can be indirect. Some binding calls cover weakened binding; strength is not graded here.

By UniProt entry, the sequences of proteins in these tests, tags left out. Where a name states a change or a piece, a line headed by the entry shows the natural chain unless it says otherwise. Residues count along the entry.
UniProt P40763, residues 2-770: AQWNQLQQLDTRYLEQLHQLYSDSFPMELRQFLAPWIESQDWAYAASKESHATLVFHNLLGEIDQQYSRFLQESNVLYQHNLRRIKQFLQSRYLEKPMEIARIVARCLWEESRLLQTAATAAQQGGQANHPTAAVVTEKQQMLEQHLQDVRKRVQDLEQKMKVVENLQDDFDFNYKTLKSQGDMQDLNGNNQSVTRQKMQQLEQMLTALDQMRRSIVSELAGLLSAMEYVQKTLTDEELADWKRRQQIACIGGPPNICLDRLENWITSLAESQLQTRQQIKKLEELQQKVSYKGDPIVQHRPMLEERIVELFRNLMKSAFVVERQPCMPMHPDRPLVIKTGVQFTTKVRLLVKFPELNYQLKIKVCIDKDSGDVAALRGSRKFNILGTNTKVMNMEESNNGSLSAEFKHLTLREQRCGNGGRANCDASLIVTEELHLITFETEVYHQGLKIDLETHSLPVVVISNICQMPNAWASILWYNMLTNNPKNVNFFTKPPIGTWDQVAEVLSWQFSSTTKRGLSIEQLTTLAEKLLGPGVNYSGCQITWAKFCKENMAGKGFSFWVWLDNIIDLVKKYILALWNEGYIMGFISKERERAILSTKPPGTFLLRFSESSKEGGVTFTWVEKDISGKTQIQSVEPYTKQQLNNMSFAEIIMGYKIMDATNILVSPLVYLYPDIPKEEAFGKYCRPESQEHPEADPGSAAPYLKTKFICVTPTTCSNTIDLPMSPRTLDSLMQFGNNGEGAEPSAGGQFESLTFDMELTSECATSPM
UniProt Q9Y238: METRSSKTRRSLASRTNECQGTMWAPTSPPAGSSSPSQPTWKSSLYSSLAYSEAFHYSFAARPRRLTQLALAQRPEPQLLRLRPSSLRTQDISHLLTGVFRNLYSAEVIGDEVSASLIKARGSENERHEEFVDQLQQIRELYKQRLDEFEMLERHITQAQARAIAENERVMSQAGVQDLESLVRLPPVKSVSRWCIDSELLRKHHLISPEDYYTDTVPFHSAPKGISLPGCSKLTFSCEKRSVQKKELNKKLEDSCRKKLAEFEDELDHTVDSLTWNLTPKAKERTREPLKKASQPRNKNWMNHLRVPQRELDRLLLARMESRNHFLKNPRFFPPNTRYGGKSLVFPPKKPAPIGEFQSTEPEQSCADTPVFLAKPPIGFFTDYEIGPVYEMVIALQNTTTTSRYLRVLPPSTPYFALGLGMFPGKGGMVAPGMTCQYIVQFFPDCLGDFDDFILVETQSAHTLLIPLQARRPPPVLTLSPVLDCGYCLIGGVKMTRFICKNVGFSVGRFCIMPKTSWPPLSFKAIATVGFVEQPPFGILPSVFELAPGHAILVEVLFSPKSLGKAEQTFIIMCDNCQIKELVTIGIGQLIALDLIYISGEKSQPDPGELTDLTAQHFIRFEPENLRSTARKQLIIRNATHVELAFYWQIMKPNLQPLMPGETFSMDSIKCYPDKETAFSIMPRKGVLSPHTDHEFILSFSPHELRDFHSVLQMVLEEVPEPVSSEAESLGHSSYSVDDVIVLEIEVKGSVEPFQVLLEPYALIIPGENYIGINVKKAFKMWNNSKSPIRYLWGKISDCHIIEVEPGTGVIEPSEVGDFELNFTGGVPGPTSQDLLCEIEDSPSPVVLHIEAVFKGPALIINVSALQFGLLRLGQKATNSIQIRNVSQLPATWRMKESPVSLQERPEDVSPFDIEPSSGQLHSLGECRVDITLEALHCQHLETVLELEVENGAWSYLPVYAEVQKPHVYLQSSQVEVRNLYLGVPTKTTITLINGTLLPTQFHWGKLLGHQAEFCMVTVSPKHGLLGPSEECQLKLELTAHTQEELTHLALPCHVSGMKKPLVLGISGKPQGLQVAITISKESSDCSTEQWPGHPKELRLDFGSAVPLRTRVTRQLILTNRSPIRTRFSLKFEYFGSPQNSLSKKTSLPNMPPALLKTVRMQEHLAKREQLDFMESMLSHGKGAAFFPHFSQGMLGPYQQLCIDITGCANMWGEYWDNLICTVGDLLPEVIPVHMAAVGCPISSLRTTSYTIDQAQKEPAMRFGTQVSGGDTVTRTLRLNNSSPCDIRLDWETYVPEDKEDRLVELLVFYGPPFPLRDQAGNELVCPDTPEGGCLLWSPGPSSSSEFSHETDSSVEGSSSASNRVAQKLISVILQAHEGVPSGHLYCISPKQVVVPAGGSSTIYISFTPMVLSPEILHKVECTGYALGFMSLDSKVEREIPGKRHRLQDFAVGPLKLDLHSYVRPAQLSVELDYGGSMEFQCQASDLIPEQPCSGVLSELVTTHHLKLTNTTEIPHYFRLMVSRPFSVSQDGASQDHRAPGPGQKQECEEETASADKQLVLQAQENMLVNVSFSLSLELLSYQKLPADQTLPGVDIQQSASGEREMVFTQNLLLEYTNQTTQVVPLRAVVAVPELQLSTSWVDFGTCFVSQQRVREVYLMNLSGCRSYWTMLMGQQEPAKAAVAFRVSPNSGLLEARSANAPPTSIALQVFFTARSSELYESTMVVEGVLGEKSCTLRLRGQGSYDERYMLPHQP

What was measured:
[1] = biological target: STAT3 (UniProt P40763); assay: summary of the co-IP results (abstract of the examples)
[2] = biological target: STAT3 (UniProt P40763); assay: IP with anti-STAT3, anti-Flag or anti-JAK2 antibody, Flag-DLEC1-transfected cells (FIG. 7E-H)
[3] = biological target: p-STAT3 (Tyr705) (UniProt P40763); assay: co-IP, Flag-DLEC1-transfected carcinoma and HEK293T cells; IL-6 stimulation decreased this interaction
[4] = biological target: STAT3 (UniProt P40763); assay: co-IP, Flag-DLEC1-transfected carcinoma and HEK293T cells; IL-6 stimulation increased this interaction
[5] = biological target: STAT3 (UniProt P40763); assay: reciprocal co-immunoprecipitation, HEK293T lysates
[6] = biological target: p-STAT3 (Tyr705) (UniProt P40763); assay: reciprocal co-immunoprecipitation, HEK293T lysates
[7] = biological target: STAT3 (UniProt P40763); assay: IP of HEK293T lysates with DLEC1, STAT3 or JAK2 antibodies (FIG. 7D)

Measured: binding

Flag-DLEC1 (exogenous, ectopically expressed DLEC1) (from UniProt Q9Y238 1-1755)
binds: [1] | [2] | [3] | [4]

endogenous DLEC1 protein (deleted in lung and esophageal cancer 1) (from UniProt Q9Y238 1-1755)
binds: [5] | [6] | [7]
